Assay results from patent publication US8314051B2, “Method of preparing 1-methylcyclopropene and applying the same to plants” (Erum Biotechnologies Inc., priority 2008, dated 2012).

Tests used:
[1] = Evaluation of fluoride compound release level by 1H-NMR of trapped liquid during preparation of 1-MCP; details: precursor + tetrabutylammonium fluoride hydrate in DMSO, 25° C., 2 hours, trap at −78° C., CDCl3
[2] = F-detection by ion chromatography, release of fluoride compounds during preparation of 1-MCP; details: 0.010 mol precursor reacted with tetrabutylammonium fluoride in DMSO, 25° C., nitrogen purge, discharged gas passed through 50 ml distilled water over 30 minutes; for F^− adsorption tube 1 (F^− concentration trapped): first tube; for F^− adsorption tube 2 (F^− concentration trapped): second tube

| SMILES | Volatile fluorosilane/siloxane byproducts in trapped liquid (1H-NMR peaks at δ=−0.3 to +0.5) [1] | F^− adsorption tube 1 (F^− concentration trapped) [2] [ppm] | F^− adsorption tube 2 (F^− concentration trapped) [2] [ppm] |
| --- | --- | --- | --- |
| CC1(OS(C)(=O)=O)CC1[Si](C)(C)C (stereo not drawn) [Comparative Example 1, 1-methyl-1-(methanesulfonyloxy)-2-(trimethylsilyl)cyclopropane, reference compound] | obtained as byproducts | 132 | 63 |
| CCCC[Si](C)(C)C1CC1(C)OS(C)(=O)=O (stereo not drawn) [Example 3, 1-methyl-1-(methanesulfonyloxy)-2-(dimethylbutylsilyl)cyclopropane] | the corresponding byproducts were not observed | 0.12 | 0.06 |
| CC1(OS(C)(=O)=O)CC1[Si](C)(C)c1ccccc1 (stereo not drawn) [Example 6, 1-methyl-1-(methanesulfonyloxy)-2-(dimethylphenylsilyl)cyclopropane] | the corresponding byproducts were not observed | 0.09 | 0.05 |
